The source of these data is PMC5070881.

Results are given in words; binding and its absence hold for the method and conditions named. Binding calls can cover weak binding; strength is not graded here. For some assays here: In cells and extracts the contact can be indirect. For some assays here: Sequences can lack the tags named with a protein.

Experiment [1] has as its target CIRV p36 replication protein (split ubiquitin bait) (Carnation Italian ringspot virus). The experiment is described as follows: two-hybrid; split ubiquitin membrane yeast two-hybrid (MYTH) in wt (NMY51) yeast; bait p33 or p36 co-expressed with prey Vps21p forms; growth read-out.
Experiment [2] deals with MBP-p36C (the C-terminal soluble portion of CIRV p36) (Carnation Italian ringspot virus). The experiment is described as follows: pull-down; MBP-affinity purified MBP-p33C or MBP-p36C as bait; captured 10xHis-tagged Vps21 or AtRab5B detected by western blot with anti-His antibody; only the target purified. A general note: A western blot detects proteins with antibodies after separation by electrophoresis.

The target in experiment [3] is MBP-p33C (the C-terminal soluble portion of TBSV p33) (Tomato bushy stunt virus). Described as above.
Experiment [4] concerns the target CIRV p36-cYFP (Carnation Italian ringspot virus). The experiment in a line: split reporter; BiFC in N. benthamiana leaves; nYFP-AtRab5B agro-infiltrated with p33-cYFP or p36-cYFP (OD600 0.4 each), confocal microscopy 2 d after agro-infiltration, GFP channel.

B1: Vps21Q66L (split ubiquitin prey) (protein, UniProt P36017 1-210)
chain: MNTSVTSIKLVLLGEAAVGKSSIVLRFVSNDFAENKEPTIGAAFLTQRVTINEHTVKFEIWDTAGLERFASLAPMYYRNAQAALVVYDVTKPQSFIKARHWVKELHEQASKDIIIALVGNKIDMLQEGGERKVAREEGEKLAEEKGLLFFETSAKTGENVNDVFLGIGEKIPLKTAEEQNSASNERESNNQRVDLNAANDGTSANSACSC
As for B1, in experiment [1], the binding entry was “binds”.

B2: 10xHis-tagged yeast Vps21 (protein, UniProt P36017 1-210)
chain: MNTSVTSIKLVLLGEAAVGKSSIVLRFVSNDFAENKEPTIGAAFLTQRVTINEHTVKFEIWDTAGQERFASLAPMYYRNAQAALVVYDVTKPQSFIKARHWVKELHEQASKDIIIALVGNKIDMLQEGGERKVAREEGEKLAEEKGLLFFETSAKTGENVNDVFLGIGEKIPLKTAEEQNSASNERESNNQRVDLNAANDGTSANSACSC
On to B2, for which the binding entry in experiment [2] and in experiment [3] was “binds” in each case.

B3: Vps21p, wild type (split ubiquitin prey) (protein, UniProt P36017 1-210)
chain: MNTSVTSIKLVLLGEAAVGKSSIVLRFVSNDFAENKEPTIGAAFLTQRVTINEHTVKFEIWDTAGQERFASLAPMYYRNAQAALVVYDVTKPQSFIKARHWVKELHEQASKDIIIALVGNKIDMLQEGGERKVAREEGEKLAEEKGLLFFETSAKTGENVNDVFLGIGEKIPLKTAEEQNSASNERESNNQRVDLNAANDGTSANSACSC
Regarding B3, the binding entry in experiment [1] is “binds”.

B4: Vps21S21L (split ubiquitin prey) (protein, UniProt P36017 1-210)
chain: MNTSVTSIKLVLLGEAAVGKLSIVLRFVSNDFAENKEPTIGAAFLTQRVTINEHTVKFEIWDTAGQERFASLAPMYYRNAQAALVVYDVTKPQSFIKARHWVKELHEQASKDIIIALVGNKIDMLQEGGERKVAREEGEKLAEEKGLLFFETSAKTGENVNDVFLGIGEKIPLKTAEEQNSASNERESNNQRVDLNAANDGTSANSACSC
As to B4, the binding entry in experiment [1] is listed as “binds”.

B5: 10xHis-tagged Arabidopsis Rab5B (protein, UniProt Q9SN68 1-200)
chain: MAAAGNKSINAKLVLLGDVGAGKSSLVLRFVKDQFVEFQESTIGAAFFSQTLAVNDATVKFEIWDTAGQERYHSLAPMYYRGAAAAIIVFDVTNQASFERAKKWVQELQAQGNPNMVMALAGNKSDLLDARKVTAEDAQTYAQENGLFFMETSAKTATNVKEIFYEIARRLPRVQPTENPTGMVLPDRAMDRAVSSSCCA
Turning to B5, the binding result in experiment [2] and in experiment [3] was “binds” in each case.

B6: nYFP-AtRab5B (protein, UniProt Q9SN68 1-200)
chain: MAAAGNKSINAKLVLLGDVGAGKSSLVLRFVKDQFVEFQESTIGAAFFSQTLAVNDATVKFEIWDTAGQERYHSLAPMYYRGAAAAIIVFDVTNQASFERAKKWVQELQAQGNPNMVMALAGNKSDLLDARKVTAEDAQTYAQENGLFFMETSAKTATNVKEIFYEIARRLPRVQPTENPTGMVLPDRAMDRAVSSSCCA
For the molecule B6, the binding entry in experiment [4] is given as “binds”.
